Experimental data reported in article PMC10076289.

Chains of the proteins cited; added tags and fusions are not shown. Lines headed by an entry give the natural chain unless they say otherwise; changes in a name come on top.
UniProt Q02078: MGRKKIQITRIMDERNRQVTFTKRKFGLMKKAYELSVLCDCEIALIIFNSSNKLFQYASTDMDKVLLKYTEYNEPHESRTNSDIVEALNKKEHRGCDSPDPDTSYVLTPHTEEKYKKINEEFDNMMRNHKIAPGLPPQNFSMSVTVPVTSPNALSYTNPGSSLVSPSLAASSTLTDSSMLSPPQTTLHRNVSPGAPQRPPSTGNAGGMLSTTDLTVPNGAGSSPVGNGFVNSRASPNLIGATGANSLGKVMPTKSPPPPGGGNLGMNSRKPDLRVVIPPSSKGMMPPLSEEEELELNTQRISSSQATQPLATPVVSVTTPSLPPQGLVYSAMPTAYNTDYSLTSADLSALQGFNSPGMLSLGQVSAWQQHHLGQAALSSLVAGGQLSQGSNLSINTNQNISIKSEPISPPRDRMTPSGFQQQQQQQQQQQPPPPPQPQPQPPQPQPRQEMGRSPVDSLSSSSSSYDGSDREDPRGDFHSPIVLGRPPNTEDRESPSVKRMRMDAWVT
UniProt Q6P9U8: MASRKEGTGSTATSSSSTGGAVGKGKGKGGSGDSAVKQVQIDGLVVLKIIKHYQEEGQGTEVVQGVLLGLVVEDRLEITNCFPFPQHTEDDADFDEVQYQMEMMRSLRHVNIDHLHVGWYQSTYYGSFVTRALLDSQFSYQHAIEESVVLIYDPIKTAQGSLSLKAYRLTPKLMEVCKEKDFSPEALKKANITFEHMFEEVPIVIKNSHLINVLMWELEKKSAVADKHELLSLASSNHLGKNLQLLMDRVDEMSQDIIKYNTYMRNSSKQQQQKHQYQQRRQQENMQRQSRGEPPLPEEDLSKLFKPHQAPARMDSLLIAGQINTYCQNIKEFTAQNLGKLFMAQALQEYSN
UniProt B0BNA7: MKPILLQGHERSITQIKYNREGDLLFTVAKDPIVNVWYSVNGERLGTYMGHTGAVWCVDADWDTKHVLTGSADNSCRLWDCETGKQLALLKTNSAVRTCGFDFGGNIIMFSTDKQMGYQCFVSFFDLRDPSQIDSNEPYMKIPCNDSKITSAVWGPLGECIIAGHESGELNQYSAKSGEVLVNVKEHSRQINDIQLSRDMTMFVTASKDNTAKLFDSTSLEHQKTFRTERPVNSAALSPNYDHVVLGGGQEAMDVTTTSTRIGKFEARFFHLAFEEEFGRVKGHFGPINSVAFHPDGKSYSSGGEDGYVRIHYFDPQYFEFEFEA
UniProt O35763: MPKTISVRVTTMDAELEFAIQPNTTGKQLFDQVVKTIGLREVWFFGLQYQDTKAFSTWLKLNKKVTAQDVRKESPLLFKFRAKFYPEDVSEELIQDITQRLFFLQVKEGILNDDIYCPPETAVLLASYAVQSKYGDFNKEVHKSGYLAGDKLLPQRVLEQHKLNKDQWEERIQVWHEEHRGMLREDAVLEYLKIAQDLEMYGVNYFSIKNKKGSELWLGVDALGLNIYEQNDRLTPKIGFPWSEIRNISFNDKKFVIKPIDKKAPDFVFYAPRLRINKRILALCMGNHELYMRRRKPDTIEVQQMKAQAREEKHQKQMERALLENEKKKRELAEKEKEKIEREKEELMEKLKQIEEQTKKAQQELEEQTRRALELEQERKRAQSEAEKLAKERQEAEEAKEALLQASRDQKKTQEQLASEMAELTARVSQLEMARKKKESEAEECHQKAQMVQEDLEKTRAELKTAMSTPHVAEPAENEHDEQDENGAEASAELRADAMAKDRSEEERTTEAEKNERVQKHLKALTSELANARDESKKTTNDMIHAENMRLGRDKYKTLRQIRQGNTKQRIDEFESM
UniProt P18420: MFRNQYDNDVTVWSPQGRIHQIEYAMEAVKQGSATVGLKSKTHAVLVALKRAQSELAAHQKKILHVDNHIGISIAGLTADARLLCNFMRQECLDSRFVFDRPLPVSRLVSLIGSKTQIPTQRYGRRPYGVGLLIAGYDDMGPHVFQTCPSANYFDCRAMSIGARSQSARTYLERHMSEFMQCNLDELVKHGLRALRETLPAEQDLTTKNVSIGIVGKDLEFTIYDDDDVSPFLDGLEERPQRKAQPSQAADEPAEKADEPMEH
UniProt P52631: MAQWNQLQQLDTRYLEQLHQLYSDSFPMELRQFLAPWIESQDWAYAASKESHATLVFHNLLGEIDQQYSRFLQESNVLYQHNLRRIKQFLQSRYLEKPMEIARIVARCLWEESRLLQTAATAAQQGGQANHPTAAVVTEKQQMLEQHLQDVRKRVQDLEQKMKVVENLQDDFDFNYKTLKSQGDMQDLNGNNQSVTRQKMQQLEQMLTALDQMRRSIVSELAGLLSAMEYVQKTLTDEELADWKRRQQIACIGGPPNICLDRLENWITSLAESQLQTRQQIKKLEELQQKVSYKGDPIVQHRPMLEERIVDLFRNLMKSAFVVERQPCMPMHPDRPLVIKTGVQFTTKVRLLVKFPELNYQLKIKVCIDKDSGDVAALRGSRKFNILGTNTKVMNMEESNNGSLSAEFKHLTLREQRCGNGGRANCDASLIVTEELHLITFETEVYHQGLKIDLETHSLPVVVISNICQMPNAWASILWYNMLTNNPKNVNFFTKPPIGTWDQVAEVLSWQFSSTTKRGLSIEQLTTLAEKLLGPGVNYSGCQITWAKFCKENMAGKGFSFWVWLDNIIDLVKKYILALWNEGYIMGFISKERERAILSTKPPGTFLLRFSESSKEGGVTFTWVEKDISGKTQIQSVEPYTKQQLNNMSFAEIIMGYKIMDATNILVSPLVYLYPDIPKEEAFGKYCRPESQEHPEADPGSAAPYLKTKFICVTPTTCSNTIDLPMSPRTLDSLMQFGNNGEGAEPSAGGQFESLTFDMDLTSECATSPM
UniProt A1L108: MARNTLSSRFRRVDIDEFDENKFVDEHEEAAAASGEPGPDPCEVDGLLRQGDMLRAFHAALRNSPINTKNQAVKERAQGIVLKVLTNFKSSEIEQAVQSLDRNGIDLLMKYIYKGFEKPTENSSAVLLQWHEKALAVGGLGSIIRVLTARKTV
UniProt Q641X8: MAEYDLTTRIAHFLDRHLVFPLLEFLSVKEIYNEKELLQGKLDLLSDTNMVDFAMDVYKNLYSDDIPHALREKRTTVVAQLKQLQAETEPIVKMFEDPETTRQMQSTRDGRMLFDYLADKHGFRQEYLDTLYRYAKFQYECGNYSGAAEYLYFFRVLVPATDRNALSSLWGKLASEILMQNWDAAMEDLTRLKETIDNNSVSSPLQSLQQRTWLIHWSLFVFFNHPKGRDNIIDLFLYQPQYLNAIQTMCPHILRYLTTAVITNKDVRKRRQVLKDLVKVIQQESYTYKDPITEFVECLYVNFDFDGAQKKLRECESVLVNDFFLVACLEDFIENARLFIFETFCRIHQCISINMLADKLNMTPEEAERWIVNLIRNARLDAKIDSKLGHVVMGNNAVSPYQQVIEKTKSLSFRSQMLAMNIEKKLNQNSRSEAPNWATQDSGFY
UniProt P31977: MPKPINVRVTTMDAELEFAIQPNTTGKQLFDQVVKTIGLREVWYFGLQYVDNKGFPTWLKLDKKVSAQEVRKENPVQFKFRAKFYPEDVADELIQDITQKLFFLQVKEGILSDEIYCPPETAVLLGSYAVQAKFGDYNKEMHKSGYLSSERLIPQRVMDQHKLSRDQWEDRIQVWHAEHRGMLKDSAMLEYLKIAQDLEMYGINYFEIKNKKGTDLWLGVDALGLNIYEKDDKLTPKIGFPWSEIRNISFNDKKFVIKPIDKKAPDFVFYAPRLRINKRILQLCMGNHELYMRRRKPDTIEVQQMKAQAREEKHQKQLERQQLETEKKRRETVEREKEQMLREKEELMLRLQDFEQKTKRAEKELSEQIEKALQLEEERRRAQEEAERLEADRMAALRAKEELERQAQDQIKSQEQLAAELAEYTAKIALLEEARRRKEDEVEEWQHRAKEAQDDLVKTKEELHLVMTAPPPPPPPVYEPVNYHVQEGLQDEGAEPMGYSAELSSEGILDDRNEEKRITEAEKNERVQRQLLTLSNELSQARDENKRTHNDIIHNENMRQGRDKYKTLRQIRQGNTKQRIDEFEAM
UniProt P62138: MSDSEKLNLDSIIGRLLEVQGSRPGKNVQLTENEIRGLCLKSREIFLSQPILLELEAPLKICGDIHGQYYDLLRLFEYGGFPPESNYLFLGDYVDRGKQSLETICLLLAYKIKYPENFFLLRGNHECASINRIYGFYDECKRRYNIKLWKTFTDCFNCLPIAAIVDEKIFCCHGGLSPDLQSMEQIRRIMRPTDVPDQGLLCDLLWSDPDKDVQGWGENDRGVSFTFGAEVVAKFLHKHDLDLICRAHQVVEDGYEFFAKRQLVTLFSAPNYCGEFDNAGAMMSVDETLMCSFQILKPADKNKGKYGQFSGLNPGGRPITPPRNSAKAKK
UniProt P18421: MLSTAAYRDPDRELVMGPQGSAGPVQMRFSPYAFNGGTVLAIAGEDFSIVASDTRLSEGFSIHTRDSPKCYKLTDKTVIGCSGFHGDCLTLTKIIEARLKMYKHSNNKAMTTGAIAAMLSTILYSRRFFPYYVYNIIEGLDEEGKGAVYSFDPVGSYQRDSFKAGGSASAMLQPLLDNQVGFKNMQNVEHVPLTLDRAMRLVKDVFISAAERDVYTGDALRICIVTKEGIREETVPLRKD
UniProt P48500: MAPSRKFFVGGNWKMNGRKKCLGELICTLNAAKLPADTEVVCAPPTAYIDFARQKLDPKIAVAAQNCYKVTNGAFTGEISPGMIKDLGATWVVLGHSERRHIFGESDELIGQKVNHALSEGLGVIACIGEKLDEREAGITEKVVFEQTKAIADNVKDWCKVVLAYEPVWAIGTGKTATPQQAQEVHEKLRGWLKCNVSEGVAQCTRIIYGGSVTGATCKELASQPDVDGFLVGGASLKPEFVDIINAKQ

What follows are substances tested against 3xFlag-MEF2A (UniProt Q02078) (assay: affinity purification with mass spectrometry; 3xFlag-MEF2A expressed in primary neonatal rat cardiomyocytes, captured on anti-Flag magnetic beads, eluted with 0.2% TFA in 20% acetonitrile (pH 1.9), trypsin digest, iTRAQ labelling, LC-MS/MS; 3 Flag-MEF2A and 3 non-transfected control IPs).

Row | Substance | binding
1 | EIF3H (from UniProt Q6P9U8 1-352) | binds
2 | EIF3I (from UniProt B0BNA7 1-325) | binds
3 | Moesin (from UniProt O35763 1-577) | binds
4 | PSMA1 (from UniProt P18420 1-263) | binds
5 | STAT3 (from UniProt P52631 1-770) | binds
6 | actin-related protein 2/3 complex subunit 5-like protein (from UniProt A1L108 1-153) | binds

Next, values leading:

Row | binding | Substance
7 | binds | EIF3E (from UniProt Q641X8 1-445)
8 | binds | Ezrin (from UniProt P31977 1-586)
9 | binds | PKM (from UniProt P11980-2)
10 | binds | PP1α (from UniProt P62138 1-330)
11 | binds | PSMB1 (from UniProt P18421)
12 | binds | RBPMS (from UniProt A0A8I6G705 1-197)
13 | binds | TPI1 (from UniProt P48500 1-249)

No constants are given. Whether binding was seen depends on the method and setting. Binding seen in cells or lysates may run through a third protein. Here binding means that the protein was enriched with, or labelled near, the bait; the list need not be complete.
